According to US20210063414A1, “METHODS FOR PREVENTING AND/OR TREATING BONE LOSS CONDITIONS BY MODULATING IRISIN” (Dana-Farber Cancer Institute, Inc., priority 2018, published 2021):
No constants are given. Whether binding was seen depends on the method and setting. For some assays here: Binding seen in cells or lysates may run through a third protein. Some binding calls cover weakened binding; strength is not graded here. Where a sequence is shown, tags or fusion partners need not be part of it.

Amino acid sequences for entries named in this document (tags omitted). A change or cut given only in a name is not applied to a line headed by its entry.
UniProt P13612: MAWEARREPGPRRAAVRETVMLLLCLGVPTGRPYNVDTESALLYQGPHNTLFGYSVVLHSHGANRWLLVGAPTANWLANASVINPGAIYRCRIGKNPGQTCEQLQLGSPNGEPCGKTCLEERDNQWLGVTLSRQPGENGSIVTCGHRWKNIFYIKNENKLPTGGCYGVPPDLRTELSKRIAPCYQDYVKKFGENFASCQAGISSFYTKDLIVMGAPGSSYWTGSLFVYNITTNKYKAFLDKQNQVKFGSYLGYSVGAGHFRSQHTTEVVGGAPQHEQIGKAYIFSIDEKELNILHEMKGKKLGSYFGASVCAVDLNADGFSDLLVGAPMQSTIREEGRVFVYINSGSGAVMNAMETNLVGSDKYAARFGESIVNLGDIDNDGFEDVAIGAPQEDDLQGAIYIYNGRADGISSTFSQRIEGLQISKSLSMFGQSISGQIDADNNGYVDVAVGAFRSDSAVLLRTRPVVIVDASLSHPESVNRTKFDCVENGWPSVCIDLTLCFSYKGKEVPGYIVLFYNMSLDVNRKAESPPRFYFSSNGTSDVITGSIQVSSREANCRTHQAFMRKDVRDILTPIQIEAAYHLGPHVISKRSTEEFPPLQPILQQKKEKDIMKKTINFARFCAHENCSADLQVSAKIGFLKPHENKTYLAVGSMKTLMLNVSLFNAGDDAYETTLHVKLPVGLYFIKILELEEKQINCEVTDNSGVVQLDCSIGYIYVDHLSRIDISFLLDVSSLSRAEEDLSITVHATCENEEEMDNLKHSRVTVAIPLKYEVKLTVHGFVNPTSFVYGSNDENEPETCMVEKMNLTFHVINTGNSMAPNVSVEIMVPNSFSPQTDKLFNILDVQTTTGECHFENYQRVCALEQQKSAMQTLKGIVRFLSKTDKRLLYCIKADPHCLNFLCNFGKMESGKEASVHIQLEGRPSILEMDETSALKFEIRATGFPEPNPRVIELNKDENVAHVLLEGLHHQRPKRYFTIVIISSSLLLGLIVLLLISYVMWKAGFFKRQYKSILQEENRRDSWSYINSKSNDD
UniProt P05556: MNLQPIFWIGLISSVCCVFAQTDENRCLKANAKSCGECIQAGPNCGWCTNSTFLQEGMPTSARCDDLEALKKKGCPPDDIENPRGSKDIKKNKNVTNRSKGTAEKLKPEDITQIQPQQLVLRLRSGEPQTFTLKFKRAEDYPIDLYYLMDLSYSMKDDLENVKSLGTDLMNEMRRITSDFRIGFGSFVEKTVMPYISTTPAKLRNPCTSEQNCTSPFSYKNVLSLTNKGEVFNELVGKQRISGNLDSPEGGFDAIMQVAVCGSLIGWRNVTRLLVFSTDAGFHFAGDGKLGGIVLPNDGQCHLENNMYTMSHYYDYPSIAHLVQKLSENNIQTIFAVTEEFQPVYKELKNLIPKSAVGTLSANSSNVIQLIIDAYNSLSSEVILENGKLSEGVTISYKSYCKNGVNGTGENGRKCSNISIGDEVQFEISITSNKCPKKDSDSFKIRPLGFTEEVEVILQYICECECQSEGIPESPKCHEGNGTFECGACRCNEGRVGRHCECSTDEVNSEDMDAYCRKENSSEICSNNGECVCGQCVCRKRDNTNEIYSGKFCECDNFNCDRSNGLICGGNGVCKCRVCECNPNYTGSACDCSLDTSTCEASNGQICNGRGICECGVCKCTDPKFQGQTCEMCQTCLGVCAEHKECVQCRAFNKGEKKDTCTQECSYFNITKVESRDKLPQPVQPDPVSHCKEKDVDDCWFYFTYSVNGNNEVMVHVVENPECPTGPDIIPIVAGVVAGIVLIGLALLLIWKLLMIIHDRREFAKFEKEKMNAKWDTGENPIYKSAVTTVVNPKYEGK
UniProt P06756: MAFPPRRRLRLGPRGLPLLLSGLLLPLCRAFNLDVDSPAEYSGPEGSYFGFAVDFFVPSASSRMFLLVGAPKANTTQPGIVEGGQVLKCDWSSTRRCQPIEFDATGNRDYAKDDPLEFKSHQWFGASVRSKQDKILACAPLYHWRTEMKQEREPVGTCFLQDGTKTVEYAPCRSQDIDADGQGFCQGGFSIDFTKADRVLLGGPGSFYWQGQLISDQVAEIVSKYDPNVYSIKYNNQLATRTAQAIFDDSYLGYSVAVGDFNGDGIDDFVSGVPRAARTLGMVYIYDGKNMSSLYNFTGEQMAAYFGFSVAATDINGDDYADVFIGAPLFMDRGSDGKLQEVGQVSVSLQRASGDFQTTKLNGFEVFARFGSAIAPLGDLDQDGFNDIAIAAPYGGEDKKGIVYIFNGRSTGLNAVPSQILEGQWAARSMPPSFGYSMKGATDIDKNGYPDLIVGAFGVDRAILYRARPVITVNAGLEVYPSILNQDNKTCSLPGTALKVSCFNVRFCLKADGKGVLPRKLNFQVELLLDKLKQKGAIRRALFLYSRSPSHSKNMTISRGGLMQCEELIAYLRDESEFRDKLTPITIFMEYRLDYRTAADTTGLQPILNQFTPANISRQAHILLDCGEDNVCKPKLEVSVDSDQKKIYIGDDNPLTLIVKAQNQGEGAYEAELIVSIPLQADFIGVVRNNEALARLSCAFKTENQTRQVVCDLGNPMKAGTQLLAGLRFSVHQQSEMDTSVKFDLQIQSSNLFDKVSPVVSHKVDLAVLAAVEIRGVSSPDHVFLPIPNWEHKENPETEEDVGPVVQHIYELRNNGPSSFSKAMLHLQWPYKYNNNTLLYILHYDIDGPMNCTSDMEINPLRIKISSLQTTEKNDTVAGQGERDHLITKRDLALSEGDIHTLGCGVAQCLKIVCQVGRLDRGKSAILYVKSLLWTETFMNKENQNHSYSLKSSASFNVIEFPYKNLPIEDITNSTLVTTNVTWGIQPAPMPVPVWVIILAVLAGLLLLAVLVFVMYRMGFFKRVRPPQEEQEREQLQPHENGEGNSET
UniProt Q9UKX5: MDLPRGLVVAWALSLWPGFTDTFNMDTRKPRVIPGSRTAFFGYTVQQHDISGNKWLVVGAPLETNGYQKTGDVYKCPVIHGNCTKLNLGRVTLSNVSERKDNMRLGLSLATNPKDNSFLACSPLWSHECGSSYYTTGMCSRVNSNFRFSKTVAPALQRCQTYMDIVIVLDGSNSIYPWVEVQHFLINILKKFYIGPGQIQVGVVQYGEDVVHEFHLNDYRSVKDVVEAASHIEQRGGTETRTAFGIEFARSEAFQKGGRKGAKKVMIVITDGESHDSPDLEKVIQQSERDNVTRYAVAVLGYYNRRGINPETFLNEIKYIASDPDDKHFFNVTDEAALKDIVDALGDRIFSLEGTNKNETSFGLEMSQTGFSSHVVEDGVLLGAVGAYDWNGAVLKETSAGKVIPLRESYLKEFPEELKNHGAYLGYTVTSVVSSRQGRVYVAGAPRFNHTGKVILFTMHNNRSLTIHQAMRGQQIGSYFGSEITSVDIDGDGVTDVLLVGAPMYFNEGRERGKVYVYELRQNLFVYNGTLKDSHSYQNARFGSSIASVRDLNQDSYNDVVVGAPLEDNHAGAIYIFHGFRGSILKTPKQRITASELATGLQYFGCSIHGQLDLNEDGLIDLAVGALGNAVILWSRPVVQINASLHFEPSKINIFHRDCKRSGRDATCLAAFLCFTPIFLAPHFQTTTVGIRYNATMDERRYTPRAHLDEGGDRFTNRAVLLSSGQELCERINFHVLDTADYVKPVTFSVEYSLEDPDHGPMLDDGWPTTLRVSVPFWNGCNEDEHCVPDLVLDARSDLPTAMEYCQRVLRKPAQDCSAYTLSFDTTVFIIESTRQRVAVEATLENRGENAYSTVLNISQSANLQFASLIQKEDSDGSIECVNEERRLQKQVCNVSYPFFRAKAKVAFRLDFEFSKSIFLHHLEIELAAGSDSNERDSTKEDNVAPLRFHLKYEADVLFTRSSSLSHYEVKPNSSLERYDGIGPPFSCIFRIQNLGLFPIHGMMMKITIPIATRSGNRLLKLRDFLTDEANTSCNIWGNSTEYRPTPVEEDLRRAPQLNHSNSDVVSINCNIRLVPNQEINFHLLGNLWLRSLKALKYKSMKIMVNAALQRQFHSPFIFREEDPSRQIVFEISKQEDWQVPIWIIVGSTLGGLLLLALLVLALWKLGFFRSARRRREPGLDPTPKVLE
UniProt Q13797: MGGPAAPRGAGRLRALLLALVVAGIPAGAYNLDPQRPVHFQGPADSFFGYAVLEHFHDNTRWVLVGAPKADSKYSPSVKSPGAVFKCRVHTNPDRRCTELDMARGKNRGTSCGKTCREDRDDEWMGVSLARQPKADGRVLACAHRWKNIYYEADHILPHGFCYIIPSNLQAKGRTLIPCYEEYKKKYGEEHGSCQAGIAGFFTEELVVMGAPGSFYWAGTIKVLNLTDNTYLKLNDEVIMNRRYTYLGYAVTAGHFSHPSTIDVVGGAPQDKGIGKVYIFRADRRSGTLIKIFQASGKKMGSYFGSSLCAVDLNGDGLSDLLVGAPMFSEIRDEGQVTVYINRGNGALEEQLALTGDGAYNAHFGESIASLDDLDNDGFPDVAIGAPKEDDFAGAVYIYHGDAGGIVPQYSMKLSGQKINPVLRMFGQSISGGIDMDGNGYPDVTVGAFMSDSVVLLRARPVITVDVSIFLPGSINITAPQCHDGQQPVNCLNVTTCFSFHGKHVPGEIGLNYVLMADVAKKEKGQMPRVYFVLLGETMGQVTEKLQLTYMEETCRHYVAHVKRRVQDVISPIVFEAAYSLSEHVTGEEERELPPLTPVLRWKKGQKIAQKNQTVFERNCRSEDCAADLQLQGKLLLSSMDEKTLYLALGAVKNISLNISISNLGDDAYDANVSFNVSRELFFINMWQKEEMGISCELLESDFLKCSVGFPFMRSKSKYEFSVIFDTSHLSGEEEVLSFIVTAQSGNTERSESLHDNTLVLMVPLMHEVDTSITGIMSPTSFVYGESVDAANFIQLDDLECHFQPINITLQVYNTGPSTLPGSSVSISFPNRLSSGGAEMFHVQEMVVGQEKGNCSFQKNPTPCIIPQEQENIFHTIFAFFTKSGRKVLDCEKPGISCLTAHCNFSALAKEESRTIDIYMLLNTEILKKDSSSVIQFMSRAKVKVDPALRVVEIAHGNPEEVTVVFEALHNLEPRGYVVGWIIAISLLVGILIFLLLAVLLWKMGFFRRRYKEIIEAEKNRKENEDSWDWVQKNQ
UniProt P18084: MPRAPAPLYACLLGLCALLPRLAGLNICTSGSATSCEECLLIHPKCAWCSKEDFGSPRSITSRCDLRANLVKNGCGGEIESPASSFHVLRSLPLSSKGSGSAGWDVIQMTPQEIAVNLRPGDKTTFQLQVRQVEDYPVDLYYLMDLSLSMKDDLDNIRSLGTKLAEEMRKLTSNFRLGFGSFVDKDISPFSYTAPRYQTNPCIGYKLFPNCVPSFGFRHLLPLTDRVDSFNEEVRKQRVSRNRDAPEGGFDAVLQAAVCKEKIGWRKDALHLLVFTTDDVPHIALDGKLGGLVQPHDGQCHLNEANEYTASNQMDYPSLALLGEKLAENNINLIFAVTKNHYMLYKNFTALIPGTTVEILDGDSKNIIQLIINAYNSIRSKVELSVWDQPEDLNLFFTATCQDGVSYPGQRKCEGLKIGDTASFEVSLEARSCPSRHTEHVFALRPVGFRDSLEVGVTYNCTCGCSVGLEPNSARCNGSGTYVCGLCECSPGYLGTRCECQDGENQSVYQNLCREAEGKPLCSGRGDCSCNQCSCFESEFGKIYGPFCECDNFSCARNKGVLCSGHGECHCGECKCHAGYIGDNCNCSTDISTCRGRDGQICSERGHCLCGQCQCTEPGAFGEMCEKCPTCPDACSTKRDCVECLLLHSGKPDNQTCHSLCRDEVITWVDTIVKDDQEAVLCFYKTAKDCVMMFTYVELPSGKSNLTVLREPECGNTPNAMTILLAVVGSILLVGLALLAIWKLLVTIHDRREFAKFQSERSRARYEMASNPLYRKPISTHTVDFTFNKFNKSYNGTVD

What was measured:
[1] = molecular target: Recombinant Human Integrin alpha 4 beta 1 Protein, CF (R&D Systems, Cat. # 5668-A4-050) (human) (UniProt P13612+P05556); experiment: co-precipitation: 100 nM flag-tag irisin with 5 nM his-tag integrin, anti-his-tag agarose, anti-flag immunoblot
[2] = molecular target: T1, Recombinant Human Integrin alpha 1 beta 1 Protein, CF (R&D Systems, Cat. # 7064-AB-025) (human) (UniProt P56199+P05556); experiment: as above
[3] = molecular target: T2, Recombinant Human Integrin alpha V beta 1 Protein, CF (R&D Systems, Cat. # 6579-AV-025) (human) (UniProt P06756+P05556); experiment: as above
[4] = molecular target: Recombinant Human Integrin alpha 11 beta 1 Protein, CF (R&D Systems, Cat. # 6357-AB-050) (human) (UniProt Q9UKX5+P05556); experiment: as above
[5] = molecular target: Recombinant Human Integrin alpha 9 beta 1 Protein, CF (R&D Systems, Cat. # 5438-A9-050) (human) (UniProt Q13797+P05556); experiment: as above
[6] = molecular target: T3, Recombinant Mouse Integrin alpha V beta 5 Protein, CF (R&D Systems, Cat. # 7706-AV-050) (mouse) (UniProt P43406+O70309); experiment: summary of the co-precipitation and cell experiments
[7] = molecular target: T4, Recombinant Human Integrin alpha V beta 5 Protein, CF (R&D Systems, Cat. # 2528-AV-050) (human) (UniProt P06756+P18084); experiment: as above
[8] = molecular target: T2, Recombinant Human Integrin alpha V beta 1 Protein, CF (R&D Systems, Cat. # 6579-AV-025) (human); experiment: as above
[9] = molecular target: T3, Recombinant Mouse Integrin alpha V beta 5 Protein, CF (R&D Systems, Cat. # 7706-AV-050) (mouse); experiment: co-precipitation: 100 nM flag-tagged irisin with 5 nM his-tag integrins, Ni-NTA agarose, immunoblot
[10] = molecular target: T4, Recombinant Human Integrin alpha V beta 5 Protein, CF (R&D Systems, Cat. # 2528-AV-050) (human); experiment: as above
[11] = molecular target: T3, Recombinant Mouse Integrin alpha V beta 5 Protein, CF (R&D Systems, Cat. # 7706-AV-050) (mouse); experiment: protein-protein binding assay with purified irisin and integrin complexes
[12] = molecular target: T4, Recombinant Human Integrin alpha V beta 5 Protein, CF (R&D Systems, Cat. # 2528-AV-050) (human); experiment: as above
[13] = molecular target: T1, Recombinant Human Integrin alpha 1 beta 1 Protein, CF (R&D Systems, Cat. # 7064-AB-025) (human); experiment: as above
[14] = molecular target: Integrin beta-1 (Itgb1) of MLO-Y4 cells (mouse) (UniProt P09055); experiment: DTSSP cross-linking on MLO-Y4 cells, quantitative proteomic analysis

Measured: binding

B1: Flag-tagged mammalian irisin (Enzo life sciences, Cat. # ADI-908-307-3010) (ligand, not shown: small tags and cut ends)
chain: DSPSAPVNVTVRHLKANSAVVSWDVLEDEVVIGFAISQQKKDVRMLRFIQEVNTTTRSCALWDLEEDTEYIVHVQAISIQGQSPASEPVLFKTPREAEKMASKNKDEVTMKE
binds: [1] | [2] | [3] | [4] | [5] | [6] | [7] | [8] | [9] | [10] | [11] | [12] | [13]

B2: His-tag recombinant irisin (irisin (human/mouse) with a C-terminal 10 his tag, produced in HEK293 cells) (ligand, not shown: small tags and cut ends)
chain: B1 chain
binds: [14]
